Test results published in US20260144808.

Amino acid sequences for entries named in this document (tags omitted).
UniProt Q9UER7, whole entry: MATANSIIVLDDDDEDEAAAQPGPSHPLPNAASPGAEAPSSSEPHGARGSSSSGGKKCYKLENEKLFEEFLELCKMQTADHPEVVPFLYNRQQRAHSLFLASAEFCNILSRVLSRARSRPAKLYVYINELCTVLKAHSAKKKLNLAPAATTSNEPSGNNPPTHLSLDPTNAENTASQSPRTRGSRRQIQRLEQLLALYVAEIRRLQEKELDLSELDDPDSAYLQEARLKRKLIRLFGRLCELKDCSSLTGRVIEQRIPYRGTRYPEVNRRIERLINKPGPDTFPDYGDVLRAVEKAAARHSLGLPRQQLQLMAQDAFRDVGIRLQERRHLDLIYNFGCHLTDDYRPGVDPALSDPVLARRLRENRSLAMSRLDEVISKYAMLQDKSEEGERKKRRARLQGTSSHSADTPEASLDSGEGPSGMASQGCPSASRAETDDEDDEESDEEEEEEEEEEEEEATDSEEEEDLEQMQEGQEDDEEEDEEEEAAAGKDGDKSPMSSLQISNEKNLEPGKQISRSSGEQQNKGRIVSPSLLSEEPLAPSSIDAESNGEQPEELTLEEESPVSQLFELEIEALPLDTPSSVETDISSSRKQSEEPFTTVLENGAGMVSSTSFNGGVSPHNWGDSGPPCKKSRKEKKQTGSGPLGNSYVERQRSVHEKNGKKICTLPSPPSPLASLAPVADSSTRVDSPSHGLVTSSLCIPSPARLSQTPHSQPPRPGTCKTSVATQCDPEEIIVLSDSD

Assays:
[1] = biological target: DAXX (endogenous) (Homo sapiens) (UniProt Q9UER7); assay: pull-down; conditions: protein in an extract, label: 3' biotin on forward strand
DAXX (Homo sapiens) = DAXX (Homo sapiens) (UniProt Q9UER7); assay: EMSA; conditions: length-matched random control; same buffer; purified recombinant protein; label: 5' Alexa Fluor 488 on one strand

“GGGGCCGGGGCCGGGGCCGGGGCCGGGGCCGGGGCCAACAAC (double strand) [(G4C2)6 dsDNA]”: binds ([1]; SILAC MS top-ranked and immunoblot, PBS pH 7.4, 0.01% Tween-20, 4 C 2 h).
“GACTGACTGATAGATCCTAAGTACTGATTACTGACTATAGATCTAAGTCATGATCAGTTA (double strand) [random control dsDNA 60 bp]”: binds more weakly (DAXX (Homo sapiens)).
“GACTGACTGATAGATCCTAAGTACTGATTACTGACTAACAAC (double strand) [random control dsDNA 42 bp]”: binds more weakly ([1]; random control, DAXX enriched on (G4C2)6 relative to this).

The comparison behind a weaker result is the experiment's own reference, which may not be listed here. For part of these data: For at least one entry, the source does not settle the construct or the ends of the probe. For part of these data: At least one result comes from cells or an extract, where the contact may be indirect.
